Results taken from paper PMC12507903.
These are yes or no findings as the source states them, for the method shown. Binding seen in cells or lysates may run through a third protein. Some results given as binding are weak or reduced against the parent protein; the word gives no strength.

The chains behind the UniProt entries cited, without tags or fusion partners.
UniProt P10242: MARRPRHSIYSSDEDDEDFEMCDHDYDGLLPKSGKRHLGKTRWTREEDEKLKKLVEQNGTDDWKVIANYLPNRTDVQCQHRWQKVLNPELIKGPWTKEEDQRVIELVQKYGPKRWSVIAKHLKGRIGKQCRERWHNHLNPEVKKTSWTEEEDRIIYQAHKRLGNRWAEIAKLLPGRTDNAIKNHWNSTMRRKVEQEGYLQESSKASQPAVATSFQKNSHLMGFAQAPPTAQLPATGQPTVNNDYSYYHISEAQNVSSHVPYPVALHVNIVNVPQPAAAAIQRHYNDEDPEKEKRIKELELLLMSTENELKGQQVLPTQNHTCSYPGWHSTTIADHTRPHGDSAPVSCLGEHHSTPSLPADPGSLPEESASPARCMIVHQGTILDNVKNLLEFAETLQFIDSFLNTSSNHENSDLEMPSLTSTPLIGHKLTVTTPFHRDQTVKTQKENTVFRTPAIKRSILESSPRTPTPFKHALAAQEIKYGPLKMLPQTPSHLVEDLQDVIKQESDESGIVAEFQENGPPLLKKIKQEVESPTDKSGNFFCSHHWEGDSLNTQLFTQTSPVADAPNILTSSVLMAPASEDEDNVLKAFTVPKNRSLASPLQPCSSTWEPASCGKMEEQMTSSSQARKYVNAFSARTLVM

Target: c-Myb (human (endogenous in ADSCs)) (UniProt P10242)
Assay: co-IP; cells lysed in IP buffer, anti-c-Myb antibody (CST) with protein A/G agarose beads, eluted in SDS sample buffer, immunoblot

- binding: binds
B1: Aurora kinase A (enzyme, UniProt O14965 1-403)
chain: MDRSKENCISGPVKATAPVGGPKRVLVTQQFPCQNPLPVNSGQAQRVLCPSNSSQRIPLQAQKLVSSHKPVQNQKQKQLQATSVPHPVSRPLNNTQKSKQPLPSAPENNPEEELASKQKNEESKKRQWALEDFEIGRPLGKGKFGNVYLAREKQSKFILALKVLFKAQLEKAGVEHQLRREVEIQSHLRHPNILRLYGYFHDATRVYLILEYAPLGTVYRELQKLSKFDEQRTATYITELANALSYCHSKRVIHRDIKPENLLLGSAGELKIADFGWSVHAPSSRRTTLCGTLDYLPPEMIEGRMHDEKVDLWSLGVLCYEFLVGKPPFEANTYQETYKRISRVEFTFPDFVTEGARDLISRLLKHNPSQRPMLREVLEHPWITANSSKPSNCQNKESASKQS
